Laboratory results reported in the supplement of paper PMC10849652.
The list shows a part of the results.

By UniProt entry, the sequences of proteins in these tests, tags left out. Where a name states a change or a piece, a line headed by the entry shows the natural chain unless it says otherwise.
UniProt Q9C005, whole entry, looked up: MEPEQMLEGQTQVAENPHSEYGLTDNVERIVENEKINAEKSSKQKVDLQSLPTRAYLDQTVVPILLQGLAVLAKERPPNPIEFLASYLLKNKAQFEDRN
UniProt P51452: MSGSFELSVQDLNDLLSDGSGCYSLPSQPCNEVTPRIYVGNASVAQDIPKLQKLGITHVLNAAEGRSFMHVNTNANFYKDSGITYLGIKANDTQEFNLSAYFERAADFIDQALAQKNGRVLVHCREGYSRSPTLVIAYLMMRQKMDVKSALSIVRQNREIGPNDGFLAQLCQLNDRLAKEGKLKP
UniProt Q6ZPD9: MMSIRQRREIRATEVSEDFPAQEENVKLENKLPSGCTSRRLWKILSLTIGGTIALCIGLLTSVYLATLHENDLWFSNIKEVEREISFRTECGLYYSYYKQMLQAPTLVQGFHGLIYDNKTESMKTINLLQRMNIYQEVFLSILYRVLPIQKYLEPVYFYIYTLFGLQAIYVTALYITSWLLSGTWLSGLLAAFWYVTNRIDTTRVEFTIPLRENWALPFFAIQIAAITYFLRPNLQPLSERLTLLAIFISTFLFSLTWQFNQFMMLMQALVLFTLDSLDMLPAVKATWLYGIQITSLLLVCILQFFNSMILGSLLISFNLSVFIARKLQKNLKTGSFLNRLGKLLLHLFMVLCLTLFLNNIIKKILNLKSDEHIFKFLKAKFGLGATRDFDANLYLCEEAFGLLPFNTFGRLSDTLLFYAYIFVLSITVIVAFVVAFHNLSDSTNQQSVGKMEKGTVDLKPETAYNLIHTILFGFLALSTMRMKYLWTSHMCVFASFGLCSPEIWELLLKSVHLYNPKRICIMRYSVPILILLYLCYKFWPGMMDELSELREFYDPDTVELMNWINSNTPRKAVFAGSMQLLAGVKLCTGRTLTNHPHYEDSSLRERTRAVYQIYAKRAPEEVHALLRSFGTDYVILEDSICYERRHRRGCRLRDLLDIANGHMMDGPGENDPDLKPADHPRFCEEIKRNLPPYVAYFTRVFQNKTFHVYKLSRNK
UniProt Q92785, whole entry, looked up: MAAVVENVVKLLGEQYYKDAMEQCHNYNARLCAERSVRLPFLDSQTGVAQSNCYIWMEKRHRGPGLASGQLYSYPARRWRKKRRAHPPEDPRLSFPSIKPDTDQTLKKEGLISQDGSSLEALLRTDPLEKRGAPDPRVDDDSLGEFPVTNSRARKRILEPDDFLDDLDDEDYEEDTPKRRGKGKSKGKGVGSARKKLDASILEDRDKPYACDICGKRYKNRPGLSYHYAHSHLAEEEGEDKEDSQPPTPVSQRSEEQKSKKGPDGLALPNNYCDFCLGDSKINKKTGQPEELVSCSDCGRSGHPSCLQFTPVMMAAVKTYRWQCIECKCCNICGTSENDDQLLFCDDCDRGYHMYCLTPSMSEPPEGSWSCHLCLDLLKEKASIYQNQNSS
UniProt Q92611: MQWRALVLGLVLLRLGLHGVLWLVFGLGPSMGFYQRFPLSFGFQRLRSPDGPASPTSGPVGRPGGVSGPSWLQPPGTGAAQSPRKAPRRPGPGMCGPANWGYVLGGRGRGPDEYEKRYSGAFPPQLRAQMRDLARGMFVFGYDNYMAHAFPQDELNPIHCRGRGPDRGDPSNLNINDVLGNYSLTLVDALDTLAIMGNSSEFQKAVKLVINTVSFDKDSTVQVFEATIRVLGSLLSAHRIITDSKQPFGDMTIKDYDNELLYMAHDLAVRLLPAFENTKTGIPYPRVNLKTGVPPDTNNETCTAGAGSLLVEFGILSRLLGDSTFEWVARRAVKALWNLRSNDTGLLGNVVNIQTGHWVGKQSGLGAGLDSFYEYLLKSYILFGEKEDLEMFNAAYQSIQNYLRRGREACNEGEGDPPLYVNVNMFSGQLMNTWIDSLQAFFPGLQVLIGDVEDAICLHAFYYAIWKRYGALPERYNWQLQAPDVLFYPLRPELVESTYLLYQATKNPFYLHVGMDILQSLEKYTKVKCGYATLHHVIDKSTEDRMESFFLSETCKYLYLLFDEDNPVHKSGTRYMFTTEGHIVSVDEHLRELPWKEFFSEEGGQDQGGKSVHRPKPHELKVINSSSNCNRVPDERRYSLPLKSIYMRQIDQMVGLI
UniProt O00429, whole entry, looked up: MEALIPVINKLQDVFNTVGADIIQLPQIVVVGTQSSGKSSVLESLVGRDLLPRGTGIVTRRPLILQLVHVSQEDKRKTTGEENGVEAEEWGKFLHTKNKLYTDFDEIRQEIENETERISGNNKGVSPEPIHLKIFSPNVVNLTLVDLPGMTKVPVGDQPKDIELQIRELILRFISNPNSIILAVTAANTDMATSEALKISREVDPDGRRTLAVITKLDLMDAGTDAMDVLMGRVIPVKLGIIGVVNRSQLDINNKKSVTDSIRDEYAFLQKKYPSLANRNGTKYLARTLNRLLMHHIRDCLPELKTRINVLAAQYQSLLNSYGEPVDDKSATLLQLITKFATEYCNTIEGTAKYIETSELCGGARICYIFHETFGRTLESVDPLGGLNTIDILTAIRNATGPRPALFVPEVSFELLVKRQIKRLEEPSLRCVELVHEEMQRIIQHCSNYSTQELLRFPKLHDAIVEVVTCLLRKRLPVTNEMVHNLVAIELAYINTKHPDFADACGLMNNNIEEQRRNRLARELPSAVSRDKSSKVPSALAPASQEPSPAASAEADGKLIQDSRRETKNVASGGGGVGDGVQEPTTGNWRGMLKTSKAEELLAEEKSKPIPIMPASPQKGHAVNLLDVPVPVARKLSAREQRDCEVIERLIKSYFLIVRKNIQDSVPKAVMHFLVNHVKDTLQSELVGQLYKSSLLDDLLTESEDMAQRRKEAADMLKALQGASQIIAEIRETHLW
UniProt O75165, whole entry, looked up: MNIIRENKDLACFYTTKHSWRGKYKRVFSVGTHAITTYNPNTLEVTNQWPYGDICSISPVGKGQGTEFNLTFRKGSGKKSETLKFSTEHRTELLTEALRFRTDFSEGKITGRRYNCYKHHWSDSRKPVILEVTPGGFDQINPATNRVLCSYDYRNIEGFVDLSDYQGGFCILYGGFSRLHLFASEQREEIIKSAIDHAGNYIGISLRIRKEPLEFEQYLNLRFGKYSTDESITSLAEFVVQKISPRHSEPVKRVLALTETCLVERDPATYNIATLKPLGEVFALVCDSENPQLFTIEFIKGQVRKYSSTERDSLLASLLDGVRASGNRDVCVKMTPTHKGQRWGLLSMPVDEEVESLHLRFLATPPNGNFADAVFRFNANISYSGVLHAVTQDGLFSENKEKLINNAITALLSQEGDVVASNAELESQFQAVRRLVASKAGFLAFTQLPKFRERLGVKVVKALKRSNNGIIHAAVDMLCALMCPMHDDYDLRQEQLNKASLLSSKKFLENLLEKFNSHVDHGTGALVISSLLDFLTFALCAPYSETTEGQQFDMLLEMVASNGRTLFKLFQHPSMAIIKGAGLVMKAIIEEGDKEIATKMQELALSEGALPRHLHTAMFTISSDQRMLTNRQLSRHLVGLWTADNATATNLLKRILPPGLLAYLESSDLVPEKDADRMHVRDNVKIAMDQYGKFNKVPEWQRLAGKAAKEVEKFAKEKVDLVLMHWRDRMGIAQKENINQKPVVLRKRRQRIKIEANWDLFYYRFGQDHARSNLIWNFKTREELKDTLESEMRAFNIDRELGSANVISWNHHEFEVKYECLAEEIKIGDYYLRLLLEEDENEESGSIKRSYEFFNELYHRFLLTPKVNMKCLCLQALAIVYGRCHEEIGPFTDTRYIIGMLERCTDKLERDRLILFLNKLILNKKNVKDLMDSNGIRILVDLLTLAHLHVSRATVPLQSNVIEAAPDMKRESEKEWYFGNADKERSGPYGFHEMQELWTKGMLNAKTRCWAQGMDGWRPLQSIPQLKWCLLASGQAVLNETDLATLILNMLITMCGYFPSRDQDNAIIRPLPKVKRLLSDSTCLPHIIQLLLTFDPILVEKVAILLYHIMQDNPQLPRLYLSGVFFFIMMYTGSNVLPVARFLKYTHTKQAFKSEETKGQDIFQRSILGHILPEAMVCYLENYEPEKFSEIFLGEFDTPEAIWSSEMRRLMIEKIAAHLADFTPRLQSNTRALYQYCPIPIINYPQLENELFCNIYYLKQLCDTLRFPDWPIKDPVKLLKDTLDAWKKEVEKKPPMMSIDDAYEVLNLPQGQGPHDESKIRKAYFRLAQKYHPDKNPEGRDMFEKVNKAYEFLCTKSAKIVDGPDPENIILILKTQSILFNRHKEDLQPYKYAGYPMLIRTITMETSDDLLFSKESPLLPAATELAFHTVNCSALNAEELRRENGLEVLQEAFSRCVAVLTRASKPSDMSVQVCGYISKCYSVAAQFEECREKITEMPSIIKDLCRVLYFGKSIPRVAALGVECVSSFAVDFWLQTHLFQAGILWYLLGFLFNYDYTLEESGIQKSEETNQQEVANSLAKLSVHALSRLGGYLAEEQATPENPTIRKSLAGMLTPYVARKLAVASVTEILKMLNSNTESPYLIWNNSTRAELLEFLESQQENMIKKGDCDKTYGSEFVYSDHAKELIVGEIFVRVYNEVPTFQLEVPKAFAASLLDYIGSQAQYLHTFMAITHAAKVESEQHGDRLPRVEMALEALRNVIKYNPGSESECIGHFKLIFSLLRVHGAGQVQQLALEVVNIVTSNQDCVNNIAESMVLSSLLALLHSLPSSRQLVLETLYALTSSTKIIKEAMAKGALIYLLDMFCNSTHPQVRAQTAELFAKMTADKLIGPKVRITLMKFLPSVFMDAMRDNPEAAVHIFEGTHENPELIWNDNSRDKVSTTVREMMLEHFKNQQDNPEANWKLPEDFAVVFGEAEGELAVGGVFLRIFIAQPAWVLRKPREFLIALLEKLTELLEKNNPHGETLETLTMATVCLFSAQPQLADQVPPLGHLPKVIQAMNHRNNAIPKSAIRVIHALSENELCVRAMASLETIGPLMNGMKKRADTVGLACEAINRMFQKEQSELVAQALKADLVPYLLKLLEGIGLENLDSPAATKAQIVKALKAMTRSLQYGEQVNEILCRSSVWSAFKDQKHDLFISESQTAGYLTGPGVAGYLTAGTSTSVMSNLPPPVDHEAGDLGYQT
UniProt Q14919: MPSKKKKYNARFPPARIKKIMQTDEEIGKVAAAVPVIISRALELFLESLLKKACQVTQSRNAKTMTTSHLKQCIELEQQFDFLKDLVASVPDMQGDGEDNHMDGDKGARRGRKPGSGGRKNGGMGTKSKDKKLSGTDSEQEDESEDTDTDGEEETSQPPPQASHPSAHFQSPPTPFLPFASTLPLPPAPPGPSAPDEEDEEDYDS
UniProt Q16610: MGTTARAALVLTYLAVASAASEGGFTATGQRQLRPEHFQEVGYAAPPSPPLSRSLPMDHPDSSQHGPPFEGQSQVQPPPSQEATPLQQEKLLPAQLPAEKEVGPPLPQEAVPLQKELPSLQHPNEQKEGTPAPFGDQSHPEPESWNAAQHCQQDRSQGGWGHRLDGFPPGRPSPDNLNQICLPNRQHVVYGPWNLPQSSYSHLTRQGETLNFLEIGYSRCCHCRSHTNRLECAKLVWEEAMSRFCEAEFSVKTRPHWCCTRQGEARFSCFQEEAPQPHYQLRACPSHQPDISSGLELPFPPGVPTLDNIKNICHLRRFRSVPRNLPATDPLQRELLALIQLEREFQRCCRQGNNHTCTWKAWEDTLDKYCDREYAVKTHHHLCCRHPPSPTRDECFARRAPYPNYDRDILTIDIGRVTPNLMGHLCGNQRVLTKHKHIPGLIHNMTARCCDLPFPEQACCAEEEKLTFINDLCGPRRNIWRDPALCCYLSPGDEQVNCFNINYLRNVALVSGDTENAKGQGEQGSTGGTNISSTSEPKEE
UniProt Q9BTV6: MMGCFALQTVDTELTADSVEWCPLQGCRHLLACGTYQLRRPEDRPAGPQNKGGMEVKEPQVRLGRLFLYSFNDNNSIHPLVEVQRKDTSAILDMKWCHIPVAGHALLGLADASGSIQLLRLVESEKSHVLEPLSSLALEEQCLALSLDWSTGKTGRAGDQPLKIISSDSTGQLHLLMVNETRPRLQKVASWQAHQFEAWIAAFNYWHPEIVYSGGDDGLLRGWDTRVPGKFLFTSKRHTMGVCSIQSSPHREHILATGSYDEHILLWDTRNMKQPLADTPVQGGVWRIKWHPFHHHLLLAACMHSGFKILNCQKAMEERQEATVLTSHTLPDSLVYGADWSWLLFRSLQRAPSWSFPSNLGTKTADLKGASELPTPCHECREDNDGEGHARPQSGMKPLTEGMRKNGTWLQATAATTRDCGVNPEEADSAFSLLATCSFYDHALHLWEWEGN
UniProt Q96FJ2, whole entry, looked up: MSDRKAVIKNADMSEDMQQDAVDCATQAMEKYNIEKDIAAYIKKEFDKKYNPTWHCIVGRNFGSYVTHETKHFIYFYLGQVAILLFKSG

Legend:
Test in all cases: log2 fold change, soluble protein after heating vs DMSO (PISA); higher = thermal stabilisation; K562 cells, 10 uM, 30 min; active = over 0.2 and 3.5 SD of the protein, either way, in both replicates (recomputed)
[1] = compound: CN1CCN(CCOc2cc(OC3CCOCC3)c3c(Nc4c(Cl)ccc5c4OCO5)ncnc3c2)CC1 [saracatinib]
Outline: (§1)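 K562 cells at 2×10^6 cells/mL were treated for 30 min with 10 μM compound, and aliquots were heated for 3 min over 48°C-58°C before pooling. Extraction used PBS with 0.5% NP-40 at 4°C, and soluble protein was the supernatant after 21,000xg for 90 min, measured by TMTpro 16plex LC-MS/MS with channel sums equalised. Thermal stability values, relative to control samples and from duplicates, are log2 fold changes.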

[2] = compound: CN1CCN(c2nc(C3=C(c4c[nH]c5ccccc45)C(=O)NC3=O)c3ccccc3n2)CC1 [sotrastaurin]
Outline: as §1

[3] = compound: CN1CC[C@H](c2c(O)cc(O)c3c(=O)cc(-c4ccccc4Cl)oc23)[C@H](O)C1 [alvocidib]
Outline: as §1

[4] = compound: CN1CCc2c(c3ccccc3n2Cc2ccc(C(=O)NO)cc2)C1 [Tubastatin A]
Outline: as §1

[5] = compound: CNC(=O)C1=CC=CC=C1NC2=NC(=NC=C2Cl)NC3=C(C=C(C=C3)N4CCOCC4)OC
Outline: as §1

[6] = compound: CNC(=O)c1ccc(Nc2ncc(C(F)(F)F)c(NCc3nccnc3N(C)S(C)(=O)=O)n2)cc1 [defactinib]
Outline: as §1

[7] = compound: CNCc1ccc(-c2[nH]c3cc(F)cc4c3c2CCNC4=O)cc1 [rucaparib]
Outline: as §1

[8] = compound: CNc1nc(-c2ccc3c(N)n[nH]c3c2)cc(N2C[C@@H](C(=O)NC3CCCCC3)CC[C@H]2C)n1
Outline: as §1

[9] = compound: COC(=O)N[C@@H](C)CNc1nccc(-c2cn(C(C)C)nc2-c2cc(Cl)cc(NS(C)(=O)=O)c2F)n1 [encorafenib]
Outline: as §1

[10] = compound: COC(=O)[C@H](CCSC)NC(=O)C1=C(C=C(C=C1)NC[C@H](CS)N)C2=CC=CC=C2
Outline: as §1

[11] = compound: COC1=CC=C(C=C1)CN2C=CC3=C2C=C(C=C3)C(=O)NO
Outline: as §1

[12] = compound: CON(C)C(=O)N1N=C(c2cc(F)ccc2F)S[C@@]1(CCCN)c1ccccc1 [filanesib]
Outline: as §1

[13] = compound: CO[C@H]1C[C@@H]2CC[C@@H](C)[C@@](O)(O2)C(=O)C(=O)N2CCCC[C@H]2C(=O)O[C@H]([C@H](C)C[C@@H]2CC[C@H](n3cnnn3)[C@H](OC)C2)CC(=O)[C@H](C)/C=C(\C)[C@@H](O)[C@@H](OC)C(=O)[C@H](C)C[C@H](C)/C=C/C=C/C=C/1C [zotarolimus]
Outline: as §1

[14] = compound: COc1cc(C(=O)O)ccc1NC(=O)[C@@H]1N[C@@H](CC(C)(C)C)[C@](C#N)(c2ccc(Cl)cc2F)[C@H]1c1cccc(Cl)c1F [idasanutlin]
Outline: as §1

[15] = compound: COc1cc(Nc2ncc3c(n2)-c2ccc(Cl)cc2C(c2c(F)cccc2OC)=NC3)ccc1C(=O)O [alisertib]
Outline: as §1

[16] = compound: COc1cc2nc(-c3cc(F)ccc3O)nc(N[C@@H]3CNC[C@H]3C(C)(C)O)c2cc1OC
Outline: as §1

[17] = compound: COc1cc2ncnc(Nc3ccc(F)c(Cl)c3)c2cc1OCCCN1CCOCC1 [gefitinib]
Outline: as §1

[18] = compound: COc1cccc2cc(-c3nc([C@H]4CC[C@H](C(=O)O)CC4)n4ncnc(N)c34)[nH]c12
Outline: as §1

[19] = compound: CS(=O)(=O)CCNCc1ccc(-c2ccc3ncnc(Nc4ccc(OCc5cccc(F)c5)c(Cl)c4)c3c2)o1 [lapatinib]
Outline: as §1

[20] = compound: CS(=O)(=O)N1CCN(Cc2cc3nc(-c4cccc5[nH]ncc45)nc(N4CCOCC4)c3s2)CC1 [pictilisib]
Outline: as §1

Measured: log2 fold change

DPY30 (UniProt Q9C005)
inactive: [1] -0.196 | [2] 0.199 | [3] -0.071 | [4] 0.063 | [5] -0.021 | [6] -0.259 | [7] -0.061 | [8] 0.011 | [9] -0.04 | [10] 0.144 | [11] 0.532 | [12] 0.326 | [13] 0.087 | [14] 0.141 | [15] -0.409 | [16] -0.241 | [17] 0.027 | [18] 0.07 | [19] -0.027 | [20] -0.038

DUSP3 (UniProt P51452)
inactive: [1] 0.036 | [2] -0.009 | [3] -0.061 | [4] 0.084 | [5] 0.064 | [6] -0.052 | [7] 0.004 | [8] -0.015 | [9] 0.02 | [10] -0.011 | [11] -0.059 | [12] 0.016 | [13] 0.023 | [14] 0.012 | [15] 0.016 | [16] 0.066 | [17] 0.097 | [18] -0.029 | [19] -0.024 | [20] 0.136

DPY19L3 (UniProt Q6ZPD9)
inactive: [1] -0.151 | [2] -0.051 | [3] -0.062 | [4] 0.101 | [5] -0.035 | [6] 0.011 | [7] -0.002 | [8] 0.05 | [9] -0.068 | [10] -0.033 | [11] -0.053 | [12] 0.057 | [13] -0.023 | [14] -0.009 | [15] 0.423 | [16] -0.052 | [17] 0.084 | [18] -0.042 | [19] 0.136 | [20] 0.016

DST (UniProt Q03001)
inactive: [1] -0.096 | [2] 0.05 | [3] 0.137 | [4] 0.07 | [5] -0.186 | [6] 0.01 | [7] 0.133 | [8] 0.027 | [9] -0.059 | [10] -0.035 | [11] -0.337 | [12] 0.038 | [13] -0.026 | [14] -0.006 | [15] 0.046 | [16] 0.32 | [17] 0.037 | [18] 0.314 | [19] -0.16 | [20] 0.215

DPF2 (UniProt Q92785)
inactive: [1] 0.024 | [2] 0.098 | [3] -0.021 | [4] -0.025 | [5] -0.058 | [6] -0.02 | [7] 0.006 | [8] -0.082 | [9] 0.007 | [10] 0.075 | [11] 0.049 | [12] 0.071 | [13] -0.01 | [14] 0.052 | [15] -0.093 | [16] -0.052 | [17] -0.025 | [18] 0.001 | [19] 0.017 | [20] -0.074

EDEM1 (UniProt Q92611)
inactive: [1] -0.04 | [2] -0.107 | [3] 0.027 | [4] 0.022 | [5] -0.107 | [6] 0.026 | [7] 0.083 | [8] -0.146 | [9] -0.046 | [10] 0.009 | [11] -0.101 | [12] 0.029 | [13] -0.092 | [14] -0.016 | [15] 0.054 | [16] 0.045 | [17] 0.075 | [18] -0.046 | [19] -0.08 | [20] -0.101

DNM1L isoform 6 (UniProt O00429)
inactive: [1] 0.005 | [2] 0.047 | [3] -0.048 | [4] -0.007 | [5] -0.041 | [6] 0.015 | [7] -0.014 | [8] -0.021 | [9] 0.006 | [10] -0.032 | [11] 0.008 | [12] -0.087 | [13] 0.012 | [14] -0.087 | [15] -0.05 | [16] 0.034 | [17] -0.015 | [18] 0.035 | [19] -0.013 | [20] 0.067

DNASE2 (UniProt O00115)
inactive: [1] 0.005 | [2] 0.01 | [3] 0.016 | [4] -0.04 | [5] 0.058 | [6] 0.023 | [7] 0.02 | [8] -0.081 | [9] -0.016 | [10] 0.001 | [11] -0.015 | [12] 0.011 | [13] -0.032 | [14] 0.029 | [15] -0.038 | [16] -0.019 | [17] 0.052 | [18] 0.053 | [19] -0.005 | [20] 0.03

DNAJB4 (UniProt Q9UDY4)
inactive: [1] 0.015 | [2] -0.025 | [3] -0.013 | [4] -0.025 | [5] -0.003 | [6] -0.011 | [7] 0.005 | [8] -0.038 | [9] 0.042 | [10] 0.022 | [11] -0.037 | [12] -0.001 | [13] 0.034 | [14] 0.018 | [15] -0.041 | [16] -0.021 | [17] 0.025 | [18] -0.017 | [19] 0.015 | [20] 0.021

ECHS1 (UniProt P30084)
inactive: [1] 0.06 | [2] 0.065 | [3] -0.085 | [4] -0.017 | [5] 0.004 | [6] -0.042 | [7] -0.062 | [8] 0.023 | [9] 0.032 | [10] -0.048 | [11] 0.068 | [12] -0.017 | [13] 0.02 | [14] -0.093 | [15] -0.054 | [16] -0.03 | [17] 0.01 | [18] -0.009 | [19] 0.058 | [20] -0.089

DNAJC13 (UniProt O75165)
inactive: [1] 0.007 | [2] 0.023 | [3] -0.029 | [4] -0.006 | [5] -0.015 | [6] -0.087 | [7] 0.003 | [8] -0.008 | [9] 0.034 | [10] -0.057 | [11] 0.066 | [12] 0.039 | [13] 0.072 | [14] 0.029 | [15] 0.122 | [16] 0.008 | [17] -0.05 | [18] -0.208 | [19] 0.05 | [20] 0.014

DRAP1 isoform 2 (UniProt Q14919)
inactive: [1] 0.023 | [2] 0.02 | [3] 0 | [4] -0.03 | [5] -0.02 | [6] -0.014 | [7] -0.072 | [8] -0.044 | [9] -0.04 | [10] 0.015 | [11] -0.007 | [12] -0.016 | [13] -0.019 | [14] 0.011 | [15] -0.042 | [16] -0.004 | [17] 0.021 | [18] 0.063 | [19] 0.002 | [20] 0.016

ECM1 isoform 4 (UniProt Q16610)
inactive: [1] 0.05 | [2] 0.012 | [3] 0.004 | [4] -0.007 | [5] -0.017 | [6] -0.003 | [7] -0.003 | [8] -0.097 | [9] -0.032 | [10] 0.054 | [11] -0.049 | [12] -0.005 | [13] -0.093 | [14] 0.019 | [15] 0.174 | [16] -0.019 | [17] 0.037 | [18] 0.011 | [19] -0.009 | [20] -0.036

DPH7 (UniProt Q9BTV6)
inactive: [1] 0.012 | [2] 0.002 | [3] -0.023 | [4] 0.088 | [5] -0.007 | [6] -0.023 | [7] -0.033 | [8] 0.031 | [9] 0.019 | [10] 0.045 | [11] -0.028 | [12] 0.009 | [13] 0.014 | [14] 0.057 | [15] 0.706 | [16] 0.078 | [17] 0.026 | [18] 0.014 | [19] -0.109 | [20] 0.056

DNM1L isoform 2 (UniProt O00429)
inactive: [1] 0.235 | [2] 0.089 | [3] -0.112 | [4] -0.042 | [5] -0.009 | [6] -0.007 | [7] -0.029 | [8] -0.226 | [9] -0.023 | [10] -0.137 | [11] -0.035 | [12] -0.07 | [13] -0.066 | [14] -0.078 | [15] -0.115 | [16] -0.073 | [17] 0.092 | [18] 0.085 | [19] -0.142 | [20] -0.221

DYNLL2 (UniProt Q96FJ2)
inactive: [1] -0.101 | [2] -0.095 | [3] -0.065 | [4] 0.038 | [5] -0.005 | [6] -0.036 | [7] 0.113 | [8] 0.063 | [9] -0.041 | [10] -0.068 | [11] 0.118 | [12] -0.07 | [13] 0.076 | [14] 0.017 | [15] 0.003 | [16] 0.057 | [17] 0.047 | [18] -0.02 | [19] 0.045 | [20] -0.055

Looked up one by one from the entries so far (2):
DPF2 (UniProt Q92785)
inactive: [1] 0.024 | [2] 0.098 | [3] -0.021 | [4] -0.025 | [5] -0.058 | [6] -0.02 | [7] 0.006 | [8] -0.082 | [9] 0.007 | [10] 0.075 | [11] 0.049 | [12] 0.071 | [13] -0.01 | [14] 0.052 | [15] -0.093 | [16] -0.052 | [17] -0.025 | [18] 0.001 | [19] 0.017 | [20] -0.074

DNM1L isoform 2 (UniProt O00429)
inactive: [1] 0.235 | [2] 0.089 | [3] -0.112 | [4] -0.042 | [5] -0.009 | [6] -0.007 | [7] -0.029 | [8] -0.226 | [9] -0.023 | [10] -0.137 | [11] -0.035 | [12] -0.07 | [13] -0.066 | [14] -0.078 | [15] -0.115 | [16] -0.073 | [17] 0.092 | [18] 0.085 | [19] -0.142 | [20] -0.221
